These results are taken from the supplement of paper PMC10849652.

Protein sequences, listed by entry. Tags and fused reporters are not part of them. Lines headed by an entry give the natural chain unless they say otherwise; changes in a name come on top.
UniProt Q6IPU0: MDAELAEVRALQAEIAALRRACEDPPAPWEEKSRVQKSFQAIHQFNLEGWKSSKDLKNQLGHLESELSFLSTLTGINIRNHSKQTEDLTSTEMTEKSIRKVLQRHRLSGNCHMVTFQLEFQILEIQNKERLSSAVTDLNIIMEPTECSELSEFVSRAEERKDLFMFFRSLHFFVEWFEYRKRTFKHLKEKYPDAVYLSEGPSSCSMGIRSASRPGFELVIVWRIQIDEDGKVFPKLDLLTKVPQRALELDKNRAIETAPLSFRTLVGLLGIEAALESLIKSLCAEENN
UniProt O94986: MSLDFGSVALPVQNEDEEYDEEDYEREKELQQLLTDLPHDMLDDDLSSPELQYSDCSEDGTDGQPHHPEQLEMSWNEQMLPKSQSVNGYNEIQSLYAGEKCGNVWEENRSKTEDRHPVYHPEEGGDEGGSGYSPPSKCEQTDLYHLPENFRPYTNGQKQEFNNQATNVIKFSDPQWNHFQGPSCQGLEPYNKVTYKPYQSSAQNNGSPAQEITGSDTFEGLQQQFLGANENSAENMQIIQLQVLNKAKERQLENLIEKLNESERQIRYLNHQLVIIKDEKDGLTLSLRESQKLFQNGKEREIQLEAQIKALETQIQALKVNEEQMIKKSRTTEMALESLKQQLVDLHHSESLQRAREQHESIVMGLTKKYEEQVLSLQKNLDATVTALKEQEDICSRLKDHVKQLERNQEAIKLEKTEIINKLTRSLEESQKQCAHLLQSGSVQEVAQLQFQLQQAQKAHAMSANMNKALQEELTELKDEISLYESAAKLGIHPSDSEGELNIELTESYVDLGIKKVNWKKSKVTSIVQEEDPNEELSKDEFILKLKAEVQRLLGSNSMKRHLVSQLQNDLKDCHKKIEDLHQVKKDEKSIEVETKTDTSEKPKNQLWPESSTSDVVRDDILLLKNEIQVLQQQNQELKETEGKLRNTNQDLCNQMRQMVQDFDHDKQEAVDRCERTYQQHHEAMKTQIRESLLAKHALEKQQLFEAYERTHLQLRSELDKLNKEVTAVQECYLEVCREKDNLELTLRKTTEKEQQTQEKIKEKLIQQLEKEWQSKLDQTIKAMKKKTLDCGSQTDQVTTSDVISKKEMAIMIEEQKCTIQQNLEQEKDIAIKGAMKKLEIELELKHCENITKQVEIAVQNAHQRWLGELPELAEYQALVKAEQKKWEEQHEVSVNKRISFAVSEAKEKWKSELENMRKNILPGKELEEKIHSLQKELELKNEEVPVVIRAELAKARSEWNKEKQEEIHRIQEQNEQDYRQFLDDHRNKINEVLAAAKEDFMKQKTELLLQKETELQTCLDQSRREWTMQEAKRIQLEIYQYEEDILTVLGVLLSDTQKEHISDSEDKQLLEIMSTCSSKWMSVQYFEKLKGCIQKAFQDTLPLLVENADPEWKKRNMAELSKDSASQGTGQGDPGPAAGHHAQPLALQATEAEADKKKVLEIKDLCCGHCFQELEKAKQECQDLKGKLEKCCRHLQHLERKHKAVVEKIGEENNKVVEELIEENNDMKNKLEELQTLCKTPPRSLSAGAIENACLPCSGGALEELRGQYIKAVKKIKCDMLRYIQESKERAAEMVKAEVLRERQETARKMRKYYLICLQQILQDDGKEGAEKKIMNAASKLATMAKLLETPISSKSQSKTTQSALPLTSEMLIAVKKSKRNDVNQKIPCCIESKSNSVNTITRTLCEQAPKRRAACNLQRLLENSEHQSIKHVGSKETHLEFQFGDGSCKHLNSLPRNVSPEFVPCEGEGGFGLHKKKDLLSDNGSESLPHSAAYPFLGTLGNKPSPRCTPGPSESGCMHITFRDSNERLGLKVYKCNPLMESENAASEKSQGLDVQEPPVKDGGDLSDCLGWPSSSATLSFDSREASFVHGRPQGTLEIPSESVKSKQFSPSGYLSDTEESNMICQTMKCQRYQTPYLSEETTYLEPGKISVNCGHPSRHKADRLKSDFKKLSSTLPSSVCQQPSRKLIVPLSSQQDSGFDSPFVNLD
UniProt Q8N960: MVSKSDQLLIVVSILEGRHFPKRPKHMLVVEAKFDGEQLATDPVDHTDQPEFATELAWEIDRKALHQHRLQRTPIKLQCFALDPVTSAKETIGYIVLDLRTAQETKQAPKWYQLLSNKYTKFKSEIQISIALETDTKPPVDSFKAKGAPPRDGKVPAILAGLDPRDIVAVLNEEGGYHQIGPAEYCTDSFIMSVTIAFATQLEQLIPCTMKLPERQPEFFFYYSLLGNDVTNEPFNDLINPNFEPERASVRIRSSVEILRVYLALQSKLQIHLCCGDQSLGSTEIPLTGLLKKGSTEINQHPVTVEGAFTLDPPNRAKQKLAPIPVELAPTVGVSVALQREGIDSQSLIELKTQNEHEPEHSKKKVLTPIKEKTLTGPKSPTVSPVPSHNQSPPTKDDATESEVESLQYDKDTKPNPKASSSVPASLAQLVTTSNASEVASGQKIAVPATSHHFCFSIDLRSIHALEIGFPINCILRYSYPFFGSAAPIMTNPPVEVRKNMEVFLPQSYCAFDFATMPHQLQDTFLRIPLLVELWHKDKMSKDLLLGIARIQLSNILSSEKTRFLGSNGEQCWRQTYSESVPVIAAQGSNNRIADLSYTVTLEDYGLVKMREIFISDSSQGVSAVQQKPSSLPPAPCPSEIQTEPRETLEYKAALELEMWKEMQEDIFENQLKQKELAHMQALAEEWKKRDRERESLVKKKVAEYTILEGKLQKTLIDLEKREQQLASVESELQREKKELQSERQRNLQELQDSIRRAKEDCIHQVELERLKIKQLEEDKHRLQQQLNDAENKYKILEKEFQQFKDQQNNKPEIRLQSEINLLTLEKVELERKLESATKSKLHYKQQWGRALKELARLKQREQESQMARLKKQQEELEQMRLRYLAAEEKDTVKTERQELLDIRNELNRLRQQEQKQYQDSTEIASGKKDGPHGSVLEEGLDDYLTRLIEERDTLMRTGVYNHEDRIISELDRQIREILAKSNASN
UniProt Q9H3Q1: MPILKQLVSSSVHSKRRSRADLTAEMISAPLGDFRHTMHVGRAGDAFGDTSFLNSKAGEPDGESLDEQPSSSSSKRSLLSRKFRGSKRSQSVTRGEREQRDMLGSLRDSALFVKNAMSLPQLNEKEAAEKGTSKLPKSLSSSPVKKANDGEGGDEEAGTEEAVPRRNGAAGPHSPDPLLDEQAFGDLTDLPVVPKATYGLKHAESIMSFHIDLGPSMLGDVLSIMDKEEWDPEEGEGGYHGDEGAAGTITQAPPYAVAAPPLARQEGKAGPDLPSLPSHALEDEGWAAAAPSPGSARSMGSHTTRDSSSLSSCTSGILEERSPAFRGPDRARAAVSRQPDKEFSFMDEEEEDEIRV
UniProt O75419: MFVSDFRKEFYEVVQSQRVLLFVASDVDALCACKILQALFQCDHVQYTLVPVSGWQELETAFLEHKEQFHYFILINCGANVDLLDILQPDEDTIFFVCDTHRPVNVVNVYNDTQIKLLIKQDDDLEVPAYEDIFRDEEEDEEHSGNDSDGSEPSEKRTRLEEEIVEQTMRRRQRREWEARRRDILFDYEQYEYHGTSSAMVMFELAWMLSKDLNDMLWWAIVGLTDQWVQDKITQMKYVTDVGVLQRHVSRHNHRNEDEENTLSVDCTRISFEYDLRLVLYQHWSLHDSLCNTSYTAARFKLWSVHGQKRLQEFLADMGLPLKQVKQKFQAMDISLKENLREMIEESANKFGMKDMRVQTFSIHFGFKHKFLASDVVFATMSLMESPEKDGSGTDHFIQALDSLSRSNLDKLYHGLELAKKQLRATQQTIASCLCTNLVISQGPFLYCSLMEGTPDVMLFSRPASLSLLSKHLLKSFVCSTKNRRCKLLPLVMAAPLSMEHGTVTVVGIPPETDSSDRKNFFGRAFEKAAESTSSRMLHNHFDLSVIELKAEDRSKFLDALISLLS
UniProt Q6ZU80: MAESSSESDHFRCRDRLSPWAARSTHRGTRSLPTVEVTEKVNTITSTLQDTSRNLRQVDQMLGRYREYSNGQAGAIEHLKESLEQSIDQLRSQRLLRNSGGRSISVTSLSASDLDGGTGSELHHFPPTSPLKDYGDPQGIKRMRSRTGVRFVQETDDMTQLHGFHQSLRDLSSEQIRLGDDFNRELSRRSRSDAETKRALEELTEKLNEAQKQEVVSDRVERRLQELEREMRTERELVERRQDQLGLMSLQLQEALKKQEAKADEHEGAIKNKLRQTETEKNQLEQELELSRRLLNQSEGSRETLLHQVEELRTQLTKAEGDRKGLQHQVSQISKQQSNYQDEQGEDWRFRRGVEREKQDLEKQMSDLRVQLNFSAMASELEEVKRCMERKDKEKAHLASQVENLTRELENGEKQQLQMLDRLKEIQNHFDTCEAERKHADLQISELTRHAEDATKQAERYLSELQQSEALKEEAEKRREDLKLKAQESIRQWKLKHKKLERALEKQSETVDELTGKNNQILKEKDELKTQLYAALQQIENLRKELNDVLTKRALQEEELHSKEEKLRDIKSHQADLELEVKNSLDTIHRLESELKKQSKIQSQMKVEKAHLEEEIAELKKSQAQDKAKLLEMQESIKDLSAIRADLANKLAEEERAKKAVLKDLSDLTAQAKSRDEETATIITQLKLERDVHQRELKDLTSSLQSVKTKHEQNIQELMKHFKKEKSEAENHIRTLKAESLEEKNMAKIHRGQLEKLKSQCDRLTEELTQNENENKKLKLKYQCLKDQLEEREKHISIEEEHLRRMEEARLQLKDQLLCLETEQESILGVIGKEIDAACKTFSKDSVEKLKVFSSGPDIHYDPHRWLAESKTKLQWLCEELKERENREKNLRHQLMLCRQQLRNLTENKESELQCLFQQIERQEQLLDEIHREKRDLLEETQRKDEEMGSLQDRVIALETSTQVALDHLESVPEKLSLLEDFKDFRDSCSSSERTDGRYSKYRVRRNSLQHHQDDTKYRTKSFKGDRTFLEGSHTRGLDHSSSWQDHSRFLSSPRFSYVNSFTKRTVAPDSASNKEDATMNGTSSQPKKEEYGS
UniProt Q15517: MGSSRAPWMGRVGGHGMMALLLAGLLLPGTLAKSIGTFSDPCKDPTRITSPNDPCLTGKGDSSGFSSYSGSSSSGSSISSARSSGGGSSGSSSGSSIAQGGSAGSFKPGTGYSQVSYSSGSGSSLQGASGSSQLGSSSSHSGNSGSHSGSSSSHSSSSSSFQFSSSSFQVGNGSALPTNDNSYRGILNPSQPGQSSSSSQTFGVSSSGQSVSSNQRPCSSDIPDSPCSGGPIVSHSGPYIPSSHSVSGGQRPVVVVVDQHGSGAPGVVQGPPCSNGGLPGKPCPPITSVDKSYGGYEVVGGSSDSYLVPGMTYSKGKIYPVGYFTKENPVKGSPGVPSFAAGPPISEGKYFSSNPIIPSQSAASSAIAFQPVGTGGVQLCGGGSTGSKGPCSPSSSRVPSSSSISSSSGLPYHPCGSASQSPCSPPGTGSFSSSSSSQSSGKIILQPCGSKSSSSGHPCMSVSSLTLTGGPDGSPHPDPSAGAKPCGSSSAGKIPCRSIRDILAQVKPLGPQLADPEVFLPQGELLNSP
UniProt Q03701: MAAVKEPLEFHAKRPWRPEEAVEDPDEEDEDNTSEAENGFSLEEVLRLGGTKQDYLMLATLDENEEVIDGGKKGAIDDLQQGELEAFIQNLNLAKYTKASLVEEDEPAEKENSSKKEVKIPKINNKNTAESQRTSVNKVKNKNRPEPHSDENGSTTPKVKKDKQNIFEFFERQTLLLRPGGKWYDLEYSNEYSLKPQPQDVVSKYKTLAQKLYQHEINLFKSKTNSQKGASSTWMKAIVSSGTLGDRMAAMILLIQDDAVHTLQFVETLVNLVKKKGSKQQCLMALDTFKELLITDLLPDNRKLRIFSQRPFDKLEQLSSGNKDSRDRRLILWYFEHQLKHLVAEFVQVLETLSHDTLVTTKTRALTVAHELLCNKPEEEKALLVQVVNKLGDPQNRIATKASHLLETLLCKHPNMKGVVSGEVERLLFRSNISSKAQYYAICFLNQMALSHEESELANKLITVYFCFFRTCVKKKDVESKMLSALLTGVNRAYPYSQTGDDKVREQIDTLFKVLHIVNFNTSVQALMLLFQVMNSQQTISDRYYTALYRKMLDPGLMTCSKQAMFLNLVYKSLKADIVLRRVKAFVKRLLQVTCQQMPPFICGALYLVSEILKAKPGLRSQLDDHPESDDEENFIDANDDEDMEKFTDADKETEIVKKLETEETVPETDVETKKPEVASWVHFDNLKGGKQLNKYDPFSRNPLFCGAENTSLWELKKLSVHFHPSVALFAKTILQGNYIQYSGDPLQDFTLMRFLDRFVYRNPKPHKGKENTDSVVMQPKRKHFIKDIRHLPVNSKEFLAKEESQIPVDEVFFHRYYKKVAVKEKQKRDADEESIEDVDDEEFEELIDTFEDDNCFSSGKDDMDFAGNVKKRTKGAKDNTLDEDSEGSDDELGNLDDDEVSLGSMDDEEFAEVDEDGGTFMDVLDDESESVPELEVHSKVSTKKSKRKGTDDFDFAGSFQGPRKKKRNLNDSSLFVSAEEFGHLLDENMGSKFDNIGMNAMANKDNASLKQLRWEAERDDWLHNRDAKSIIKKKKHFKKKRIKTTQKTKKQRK

The other results are listed elsewhere or left out.

Compound in the first experiment: C1=CC=C(C=C1)C2=NC(=C(N2)C3=CC=NC=C3)C4=CC(=C(C=C4)Cl)O
Description: log2 fold change, soluble protein after heating vs DMSO (PISA); higher = thermal stabilisation; K562 cells, 10 uM, 30 min; active = over 0.2 and 3.5 SD of the protein, either way, in both replicates (recomputed). The gist of the method: (§1)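 Thermal stability values are relative to control samples and come from duplicates. They are expressed as log2 fold changes. For measurement, K562 cells (2×10^6 cells/mL) received 10 μM compound for 30 min, and aliquots were heated for 3 min over 48°C-58°C, pooled, and extracted at 4°C in PBS with 0.5% NP-40. Soluble protein, the supernatant after 21,000xg for 90 min, was quantified by TMTpro 16plex LC-MS/MS with equalised channel sums.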
CEBPG (UniProt P53567): the log2 fold change was inactive: -0.318.
The same measure, in the same setting: the figure for CENPP (UniProt Q6IPU0) is inactive: 0.028; for CDCA8 (UniProt Q53HL2) it is inactive: -0.038; for CHD8 (UniProt Q9HCK8) it is inactive: 0.
On the same count and under the same terms, under CEP170B (UniProt Q9Y4F5) stands inactive: -0.018; under CEP83 (UniProt Q9Y592), inactive: 0.09.
Same read-out and setting: the figure for CEP85 (UniProt Q6P2H3) is inactive: 0.012; for CFB (UniProt P00751) it is inactive: 0.104.
Turning to CENPV (UniProt Q7Z7K6), the log2 fold change was inactive: -0.032.
On the same count and under the same terms, the figure for CEP250 (UniProt Q9BV73) is inactive: 0.074; for CEP152 (UniProt O94986) it is inactive: -0.166; for CHCHD5 (UniProt Q9BSY4) it is inactive: -0.174.
On the same count and under the same terms, under CEP120 (UniProt Q8N960) stands inactive: 0.093; under CEP350 (UniProt Q5VT06), inactive: 0.28; under CDC42EP4 (UniProt Q9H3Q1), inactive: -0.067.
The same measure, in the same setting: under CDKN1C (UniProt P49918) stands inactive: -0.001; under CFAP58 (UniProt Q5T655), inactive: 0.047; under CDC45 isoform 3 (UniProt O75419), inactive: -0.065.

Compound in another experiment: C1=CC=C2C(=C1)C3=NNC4=CC=CC(=C43)C2=O
Described as above. The procedure, abridged: as §1
As to CFAP47 (UniProt Q6ZTR5), the log2 fold change is inactive: 0.132.
Consider CHMP2A (UniProt M0R1T5), for which the log2 fold change was inactive: -0.107.
The same measure, in the same setting: the figure for CEBPG (UniProt P53567) is inactive: -0.019.
The same measure, in the same setting: the figure for CEP135 (UniProt Q66GS9) is inactive: 0.113; for CEP170B (UniProt Q9Y4F5) it is inactive: -0.098; for CEP85 (UniProt Q6P2H3) it is inactive: 0.069.
On the same count and under the same terms, under CEP120 (UniProt Q8N960) stands inactive: 0.055; under CEP128 (UniProt Q6ZU80), inactive: -0.037; under CEP350 (UniProt Q5VT06), inactive: 0.009.
With CDSN (UniProt Q15517), the log2 fold change is inactive: -0.373.
Regarding CHD1 (UniProt O14646), the log2 fold change is inactive: -0.023.
On to CDC45 isoform 3 (UniProt O75419), for which the log2 fold change was inactive: 0.257.

Compound in another experiment: C1CCN(C1)C(=O)NC2=CC=CC(=C2)NC3=NC=C(C(=N3)NCCC4=CN=CN4)Br
The experiment is described as above. The gist of the method: as §1
For CHMP2A (UniProt M0R1T5), the log2 fold change was inactive: -0.187.
With CENPP (UniProt Q6IPU0), the log2 fold change is inactive: 0.188.
Same read-out and setting: the figure for CDK5RAP2 (UniProt Q96SN8) is inactive: 0.014; for CDC42EP2 (UniProt O14613) it is inactive: 0.028.
The same measure, in the same setting: the figure for CEP250 (UniProt Q9BV73) is inactive: -0.073; for CEP152 (UniProt O94986) it is inactive: 0.073.
As for CEBPZ (UniProt Q03701), the log2 fold change is inactive: -0.32.
On the same count and under the same terms, the figure for CEP120 (UniProt Q8N960) is inactive: 0.033; for CEP128 (UniProt Q6ZU80) it is inactive: 0.141; for CEP350 (UniProt Q5VT06) it is inactive: -0.095.
On the same count and under the same terms, the figure for CDSN (UniProt Q15517) is inactive: -0.129.
Same read-out and setting: under CDC42EP4 (UniProt Q9H3Q1) stands inactive: 0.027.
With CHFR (UniProt Q96EP1), the log2 fold change was inactive: -0.093.
Still for that read-out and setting: under CENPQ (UniProt Q7L2Z9) stands inactive: 0.052; under CDC45 isoform 3 (UniProt O75419), inactive: -0.037.

Compound in another experiment: C1CN(CCC1(CC2=CC=C(C=C2)Cl)N)C3=NC=NC4=C3C=CN4
The experiment is described as above. The procedure, abridged:
as §1
With CHMP2A (UniProt M0R1T5), the log2 fold change is inactive: 0.1.
On the same count and under the same terms, under CENPP (UniProt Q6IPU0) stands inactive: 0.026.
Same read-out and setting: under CDK5RAP2 (UniProt Q96SN8) stands inactive: -0.13; under CDC42EP2 (UniProt O14613), inactive: 0.084; under CEP250 (UniProt Q9BV73), inactive: -0.132.
Still for that read-out and setting: the figure for CEP152 (UniProt O94986) is inactive: 0.01; for CEBPZ (UniProt Q03701) it is inactive: -0.537; for CEP120 (UniProt Q8N960) it is inactive: 0.346.
In the case of CEP128 (UniProt Q6ZU80), the log2 fold change is inactive: -0.003.
Still for that read-out and setting: the figure for CEP350 (UniProt Q5VT06) is inactive: -0.298.
The same measure, in the same setting: under CDSN (UniProt Q15517) stands inactive: -0.384; under CDC42EP4 (UniProt Q9H3Q1), inactive: 0.098.
For CHFR (UniProt Q96EP1), the log2 fold change was inactive: 0.047.
For the target CENPQ (UniProt Q7L2Z9), the log2 fold change is inactive: 0.057.
On the same count and under the same terms, the figure for CDC45 isoform 3 (UniProt O75419) is inactive: -0.008.
